Experimental data: PubChem BioAssay AID504467 (National Center for Advancing Translational Sciences (NCATS), 2011)
Screen size: about 330,000 compounds; about 7,700 (2.3%) were called active. This list was built around the results that the source calls inconclusive (neither active nor inactive); the mix of calls is not that of the screen. Calls come from the whole dose curve; as a rule, active = well fitted inhibition curve with a large enough effect; inconclusive = small, poorly fitted or top-dose-only effect, or effect the other way; inactive = flat fitted curve, though single readings scatter. Potencies of inconclusive entries are doubtful fits and often do not repeat.

Experiment: qHTS screen for small molecules that inhibit ELG1-dependent DNA repair in human embryonic kidney (HEK293T) cells expressing luciferase-tagged ELG1; note: nearly all actives have a fitted effect of over 55% in size
Conditions: HEK293T ELG1-luciferase reporter, luminescence, 16 h, DNA damage induced by 5-fluorouridine; activity change, negative = inhibition: at 46.1 µM (top of the series)
Method in brief: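 Step one: seed 2,000 cells per well. Step two: pin-transfer compound or DMSO alongside 5-fluorouridine. Step three: incubate 16 hr, 37 °C, 5% CO2. Step four: add ONE-Glo, wait 30 min, read luminescence.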
% is set by controls: 0 for no effect and ±100 for the full control effect; potency is the fitted concentration of half-maximal effect.

SMILES	Potency	activity change, negative = inhibition
O=C(N/N=C/c1ccc(O)cc1)c1csc2ccccc12	inconclusive: 29.1 µM [activator, single point]	
Cc1ccc(-c2csc(NC(=O)CCNC(=O)c3ccco3)n2)cc1	inconclusive: 23.1 µM [activator, single point]	
Cc1nc(N)ncc1-c1ccc2c(c1)OCO2	inconclusive: 14.6 µM [activator, partial curve, poor fit]	
O=c1cc(CN2CCN(Cc3ccccc3)CC2)c2ccc(O)c(O)c2o1	inconclusive: 29.1 µM [inhibitor, single point]	
COc1cc(C(=O)OCc2ccc(C)cc2)cc(NC(=O)c2cccs2)c1OC	active: 20.6 µM	
O=C(NC1=NCCS1)c1ccc(-c2ccc(Cl)cc2)o1	inconclusive: 4.11 µM [activator, partial curve]	
Cc1nnc(SCCCN2C(=O)c3ccccc3C2=O)o1		inactive: 6.2%
Cc1cc(NC(=O)C(C)SCC(=O)N(C)CC(=O)Nc2ccccc2Br)no1 (stereo not given)		inactive: 15.2%
O=C(O)c1c(-c2ccccc2)oc2ccc(O)cc12		inactive: -5.59%
O=C(CSc1nc(=O)n2ccccc2n1)NCc1ccccc1Cl		inactive: 15.6%
Cc1ccc(NNC(=O)c2ccc(Cl)cc2)nn1		inactive: 0.216%
COc1cccc(C(=O)N2CCN(Cc3ccc4c(c3)OCO4)CC2)c1OC	inconclusive: 14.6 µM [inhibitor, partial curve]	
COc1ccccc1N(CC(=O)N/N=C(\C)c1cccc(Br)c1)S(C)(=O)=O		inactive: -7.08%
O=C(COC(=O)CCCSc1nc2ccccc2[nH]1)NC(=O)NC1CCCC1		inactive: 10.2%
Cn1nc([N+](=O)[O-])c(C(C#N)c2nc3ccccc3n2C)c(Cl)c1=O (stereo not given)	inconclusive: 25.9 µM [inhibitor, partial curve, poor fit]	
O=C(Nc1ccc2[nH]c(=S)sc2c1)c1ccccc1	inconclusive: 5.8 µM [activator, partial curve]	
Cc1cc(C)c(CN2CCC(n3nccc3NC(=O)c3ccccc3Cl)CC2)cc1C		inactive: -25%
CCc1nnc(NC(=O)CN2CCN(c3nc(-c4ccccc4)cs3)CC2)s1	inconclusive: 20.6 µM [inhibitor, single point]	
Cc1cc(C)c2sc(N)nc2c1		inactive: 2.82%
CC1CCC(=O)N(CCSc2ccccc2)CC1 (stereo not given)	inconclusive: 4.11 µM [activator, partial curve]	
COC(=O)c1ccc(OCC(O)Cn2nnc3ccccc32)cc1 (stereo not given)	inconclusive: 20.6 µM [activator, single point]	
O=C(Cn1ccc(NC(=O)OCc2ccccc2)nc1=O)NCC1CCCO1 (stereo not given)	inconclusive: 13 µM [activator, partial curve, poor fit]	
O=C(NCc1nnc2c(C(F)(F)F)cc(Cl)cn12)c1ccc2c(c1)OCO2		inactive: 12.4%
COc1ccccc1-n1cnnc1SCC(=O)Nc1cc(C(C)(C)C)nn1-c1ccccc1	inconclusive: 23.1 µM [inhibitor, single point]	

SMILES	Potency	activity change, negative = inhibition
Cc1ccc(-c2nnn(CC(=O)N(c3ccc(F)cc3)C(C(=O)NC3CCCC3)c3ccco3)n2)o1 (stereo not given)	inconclusive: 29.1 µM [activator, partial curve, poor fit]	
CC[C@@]12C(=O)N(c3ccc(C)cc3)C(=O)N1[C@H](c1ccc(Br)cc1)[C@@H]1C(=O)N(C(C)(C)C)C(=O)[C@@H]12		inactive: -7.76%
CCS(=O)(=O)Nc1cccc(-c2cc(-c3ccccc3)c3cc(C)ccc3n2)c1	inconclusive: 20.6 µM [inhibitor, partial curve, poor fit]	
O=C(NCC(=O)N1CCN(C/C=C/c2ccccc2)CC1)c1ccc(Br)cc1	active: 20.6 µM	
Cc1cc(C)c(C#N)c(SCc2nc3ccccc3c(=O)[nH]2)n1	inconclusive: 1.03 µM [activator, full curve]	
Clc1cccc(Cl)c1CSc1nnc(-c2ccncc2)s1	inconclusive: 13 µM [activator, partial curve]	
CCn1c(SCC(=O)Nc2ccc3c(c2)OCCO3)nnc1-c1ccncc1	inconclusive: 29.1 µM [activator, partial curve, poor fit]	
COC(=O)CCC(=O)c1oc2ccc(Br)cc2c1N	inconclusive: 13 µM [activator, partial curve]	
CCCCN(C(=O)c1cc2c(s1)CCCC2)c1c(N)n(CCC)c(=O)[nH]c1=O	inconclusive: 29.1 µM [activator, single point]	
COCc1cc(=O)n2[nH]c(C(C)(C)C)cc2n1	inconclusive: 0.517 µM [inhibitor, partial curve, poor fit]	
O=S(=O)(NCCc1cn2ccccc2n1)c1cccs1	inconclusive: 23.1 µM [activator, partial curve, poor fit]	
Cc1ccc2c(Cl)c(C(=O)NCCc3ccccc3)sc2c1	inconclusive: 16.4 µM [activator, partial curve]	
COc1ccc(NCc2ccsc2)cc1	inconclusive: 18.3 µM [activator, single point]	
CC(C)(C)c1ccc(C(=O)Nc2cccc(S(=O)(=O)NC3=NCCC3)c2)cc1	inconclusive: 2.91 µM [activator, partial curve]	
CCOc1ccc(/C=C/C2=CC(C)(C)NC(=S)N2)cc1	inconclusive: 29.1 µM [inhibitor, single point]	
CCOC(=O)CC(Nc1nc(N2CCOCC2)nc(N2CCOCC2)n1)c1ccccc1Cl (stereo not given)	active: 9.2 µM	
COc1cccc(/C=c2\s/c(=C\C(=O)C(C)(C)C)[nH]c2=O)c1	inconclusive: 29.1 µM [inhibitor, single point]	
Cc1ncc(CSCC(=O)Nc2cc(C(F)(F)F)ccc2Cl)c(CO)c1O	inconclusive: 6.51 µM [inhibitor, partial curve]	
COc1ccccc1C(=O)OCc1ccc2sc(C)nc2c1		inactive: 9.88%
CSc1ccc(CN2CCC(n3nccc3NC(=O)CCCc3ccccc3)CC2)cc1		inactive: -15.8%
CC(C)(C)CC(=O)N1CCN(c2ccc(S(=O)(=O)N3CCOCC3)cc2[N+](=O)[O-])CC1	inconclusive: 22.4 µM [inhibitor, partial curve, poor fit]	
Cc1cc(-c2ccccc2)n(-c2ccc(C(=O)N3CCN(c4ncccn4)CC3)cc2)n1	active: 6.51 µM	
COc1ccc(S(=O)(=O)N2CCOCC2)cc1NC(=O)c1cccc(-n2cccc2)c1		inactive: -18.2%
O=C(COc1ccc(C(=S)N2CCOCC2)cc1)N1CCOCC1		inactive: -0.989%

SMILES	Potency	activity change, negative = inhibition
O=C(Nc1cccc(Cl)c1)c1ccc2c(=O)n3c(nc2c1)CCCCC3	inconclusive: 0.58 µM [activator, partial curve, poor fit]	
O=C(NC(=S)Nc1ccccc1)c1cccs1	inconclusive: 16.4 µM [activator, partial curve]	
Cc1cc2oc3c(c(=O)c2cc1C)C(c1ccc(F)cc1)N(CCCN1CCOCC1)C3=O (stereo not given)	inconclusive: 9.2 µM [inhibitor, partial curve]	
CC1(C)CC2CC(C)(CN2C(=O)COC(=O)c2ccc(NC(=O)CC#N)cc2)C1 (stereo not given)		inactive: 0%
CCC(=O)c1cc(F)c(N2CCN(S(=O)(=O)c3ccccc3)CC2)cc1C	inconclusive: 29.1 µM [inhibitor, single point]	
CC(=O)c1cccc(NC(=O)C2CCN(S(=O)(=O)c3ccc(F)cc3)CC2)c1	inconclusive: 29.1 µM [inhibitor, single point]	
CN(C)S(=O)(=O)c1ccc(Cl)c(NC(=O)CN2C(=O)NC3(CCc4ccccc43)C2=O)c1 (stereo not given)		inactive: -9.59%
COc1cc(/C=N\NC(C)=O)ccc1OC/C=C/c1ccccc1	active: 16.4 µM	
Cc1cc(NC(=O)Nc2cccc3ccccc23)no1	inactive	
Cc1cccc(N(C)S(=O)(=O)c2ccc(-c3cnc(C4CC4)o3)cc2)c1		inactive: -21.9%
COc1ccc(OCC(=O)Nc2nccs2)cc1	inconclusive: 1.83 µM [activator, full curve]	
CCn1c(=O)c(CCC(=O)NCCN2CCOCC2)c(C)c2c(C)nn(-c3cccc(C)c3)c21		inactive: 5.31%
CCn1nc(C)c(Oc2ccccc2O)c1C	inconclusive: 10.3 µM [inhibitor, partial curve, poor fit]	
CC(C)c1ccc(/C=N/NC(=O)c2cccc(Cl)c2)cc1	inconclusive: 5.8 µM [activator, partial curve]	
Cc1csc(NC(=O)CSCC(=O)O)c1-c1nc2ccccc2s1	inconclusive: 23.1 µM [activator, single point]	
Cc1ccc(CN2C(=O)C[C@@H](NC(=O)OCC3c4ccccc4-c4ccccc43)C/C=C\C2c2ccc(C)cc2)cc1 (stereo not given in full)		inactive: -17.8%
CC(C)(C)OC(=O)N1CCC(CNC(=O)c2ccc(F)cc2F)CC1		inactive: -3.16%
C=CCn1c(=O)c(C(=O)Nc2ccccc2S(N)(=O)=O)c(O)c2ccccc21	inconclusive: 20.6 µM [activator, partial curve]	
CCCC(=O)Nc1nc2ccc(S(=O)(=O)N3CCCCC3)cc2s1	inconclusive: 0.731 µM [inhibitor, partial curve, poor fit]	
CN(C)C(=O)CCc1ccc2c3c([nH]c2c1)[C@]1(C)[C@@H](C(=O)N2CCOCC2)C[C@H](CC(=O)NCCc2ccccn2)C(=O)N1CC3	inconclusive: 20.6 µM [activator, single point]	
O=C(CSCC(=O)Nc1ccccc1)N/N=C/c1c(O)ccc2ccccc12	inconclusive: 5.8 µM [inhibitor, single point]	
COc1cc(NC(=O)c2cc3ccccc3o2)ccc1NC(=O)c1ccco1	inconclusive: 23.1 µM [activator, partial curve, poor fit]	

4 of the compounds above, with bars between the fields.
SMILES | Potency | activity change, negative = inhibition
CN(C)S(=O)(=O)c1ccc(Cl)c(NC(=O)CN2C(=O)NC3(CCc4ccccc43)C2=O)c1 (stereo not given) |  | inactive: -9.59%
COc1cc(/C=N\NC(C)=O)ccc1OC/C=C/c1ccccc1 | active: 16.4 µM | 
Cc1cc(NC(=O)Nc2cccc3ccccc23)no1 | inactive | 
Cc1cccc(N(C)S(=O)(=O)c2ccc(-c3cnc(C4CC4)o3)cc2)c1 |  | inactive: -21.9%
